Test results: patent publication US12629415B2, “Vaccine adjuvants” (THE PROVOST, FELLOWS, FOUNDATION SCHOLARS, AND THE OTHER …, priority 2018, dated 2026)

Test system: adult PBMCs or neonatal CBMCs
Assay: HEK-Blue IFNα/β SEAP assay on supernatants of stimulated mononuclear cells
Type: cell-based, human
Conditions: neonatal CBMCs compared with adult PBMCs; stimulation 4, 8 or 24 h
Method: Isolation of mononuclear cells and monocytes—Primary PBMCs or CBMCs were isolated from healthy human blood or cord blood. Monocytes were isolated by negative selection using Monocyte Isolation Kit II (Miltenyi). […] Cells were cultured at 37° C., 5% CO2, 95% air in RPMI-1640, with stable 2.5 mM L-glutamine and 0.5 mM sodium pyruvate with 10% FBS (all from Sigma-Aldrich).
Poly(I:C) (5 μg/ml) (Invivogen), Poly(dA:dT) (5 μg/ml) (Sigma-Aldrich), 2′3′ cGAMP (10 μg/ml), 5′ triphosphate double stranded RNA (5′ ppp dsRNA) (2.5 μg/ml) and HSV-60 (2 μg/ml) (all from Invivogen) were transfected into PBMCs or CBMCs using TransIT-X2 (Mirus).
Measurement of cytokines—HEK Blue TNFα/IFNα/β Assays were performed as per the manufacturer's (Invivogen) instructions using Quanti-Blue Detection Reagent. SEAP levels were determined using a spectrophotometer plate reader at 630 nm. IFNα (3425-1H-6, Mabtech) and IP-10 (DY266, R&D Systems) were detected by sandwich ELISA. IFNα ELISA used pan specific IFNα antibodies, which allows detection of IFNα subtypes 1/13, 2, 4, 5, 6, 7, 8, 10, 14, 16 and 17. BioLegend LEGENDplex™ Human Inflammation Panel (13-plex) was carried out as per manufacturer's (Biolegend) instructions to determine levels of IFNγ, IL-10, IL-12p70 and IL-23. A BD LSR Fortessa cell analyser was used to acquire samples and BioLegend LEGENDplex™ software was used for analysis.

## CCCc1nc2c(N)nc3ccccc3c2s1 [CL075, reference compound]
  type I IFN (IFNα/β) production: significantly lower levels of IFNα/β production from CBMCs compared with PBMCs
